Results as given in article PMC12275198.
Results are given in words; binding and its absence hold for the method and conditions named. Binding seen in cells or lysates may run through a third protein. Some results given as binding are weak or reduced against the parent protein; the word gives no strength. Tags and fused reporters may be left off the sequences shown.

What was measured:
FLAG-YEATS2 [1] = biological target: T1, FLAG-YEATS2 (UniProt Q9ULM3); assay: co-IP; 293T cells cotransfected with HA-OGT and FLAG-YEATS2; IP with anti-FLAG antibody, immunoblot
T1 sequence: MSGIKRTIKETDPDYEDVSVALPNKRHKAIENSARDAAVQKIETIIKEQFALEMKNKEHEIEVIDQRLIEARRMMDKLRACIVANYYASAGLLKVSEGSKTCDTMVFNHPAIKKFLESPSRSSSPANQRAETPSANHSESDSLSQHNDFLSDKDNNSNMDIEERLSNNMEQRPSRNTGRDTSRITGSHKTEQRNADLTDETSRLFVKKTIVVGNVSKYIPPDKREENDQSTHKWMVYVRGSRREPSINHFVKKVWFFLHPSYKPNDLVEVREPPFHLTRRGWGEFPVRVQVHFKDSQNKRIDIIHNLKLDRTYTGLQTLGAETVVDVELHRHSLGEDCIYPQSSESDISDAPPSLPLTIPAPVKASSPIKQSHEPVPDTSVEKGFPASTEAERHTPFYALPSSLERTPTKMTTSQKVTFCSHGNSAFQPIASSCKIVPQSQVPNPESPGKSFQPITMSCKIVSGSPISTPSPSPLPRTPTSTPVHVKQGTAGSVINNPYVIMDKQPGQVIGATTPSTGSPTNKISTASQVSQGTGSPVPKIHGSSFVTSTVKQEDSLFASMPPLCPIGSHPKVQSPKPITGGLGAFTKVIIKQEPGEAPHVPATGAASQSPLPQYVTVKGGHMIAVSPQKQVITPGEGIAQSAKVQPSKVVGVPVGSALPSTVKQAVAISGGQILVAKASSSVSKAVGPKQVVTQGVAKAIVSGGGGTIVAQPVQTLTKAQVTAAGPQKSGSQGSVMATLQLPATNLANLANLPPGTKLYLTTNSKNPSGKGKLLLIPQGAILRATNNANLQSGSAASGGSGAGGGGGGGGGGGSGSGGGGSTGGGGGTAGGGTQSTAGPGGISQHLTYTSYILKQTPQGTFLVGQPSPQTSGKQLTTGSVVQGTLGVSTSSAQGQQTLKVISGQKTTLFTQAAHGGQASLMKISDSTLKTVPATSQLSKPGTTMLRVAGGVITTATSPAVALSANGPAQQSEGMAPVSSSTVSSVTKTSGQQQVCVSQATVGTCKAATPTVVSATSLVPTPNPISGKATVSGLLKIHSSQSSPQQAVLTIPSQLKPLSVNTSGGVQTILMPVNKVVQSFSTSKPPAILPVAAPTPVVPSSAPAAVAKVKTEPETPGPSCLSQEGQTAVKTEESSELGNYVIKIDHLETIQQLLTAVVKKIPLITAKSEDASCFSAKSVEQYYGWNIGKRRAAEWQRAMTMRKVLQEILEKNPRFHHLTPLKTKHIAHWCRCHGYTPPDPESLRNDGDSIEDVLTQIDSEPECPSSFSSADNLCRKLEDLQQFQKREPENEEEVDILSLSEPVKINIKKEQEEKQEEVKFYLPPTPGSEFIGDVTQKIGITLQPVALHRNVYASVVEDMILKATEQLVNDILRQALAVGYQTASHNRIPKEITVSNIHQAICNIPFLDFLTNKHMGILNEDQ

FLAG-YEATS2 [2] = biological target: T1, FLAG-YEATS2; assay: co-IP; cotransfected cells, lysates fractionated into chromatin portions, then IP of tagged YEATS2 (anti-FLAG or anti-HA) and immunoblot
FLAG-YEATS2-T604A = biological target: T2, FLAG-YEATS2-T604A (UniProt Q9ULM3); assay: as above
T2 sequence: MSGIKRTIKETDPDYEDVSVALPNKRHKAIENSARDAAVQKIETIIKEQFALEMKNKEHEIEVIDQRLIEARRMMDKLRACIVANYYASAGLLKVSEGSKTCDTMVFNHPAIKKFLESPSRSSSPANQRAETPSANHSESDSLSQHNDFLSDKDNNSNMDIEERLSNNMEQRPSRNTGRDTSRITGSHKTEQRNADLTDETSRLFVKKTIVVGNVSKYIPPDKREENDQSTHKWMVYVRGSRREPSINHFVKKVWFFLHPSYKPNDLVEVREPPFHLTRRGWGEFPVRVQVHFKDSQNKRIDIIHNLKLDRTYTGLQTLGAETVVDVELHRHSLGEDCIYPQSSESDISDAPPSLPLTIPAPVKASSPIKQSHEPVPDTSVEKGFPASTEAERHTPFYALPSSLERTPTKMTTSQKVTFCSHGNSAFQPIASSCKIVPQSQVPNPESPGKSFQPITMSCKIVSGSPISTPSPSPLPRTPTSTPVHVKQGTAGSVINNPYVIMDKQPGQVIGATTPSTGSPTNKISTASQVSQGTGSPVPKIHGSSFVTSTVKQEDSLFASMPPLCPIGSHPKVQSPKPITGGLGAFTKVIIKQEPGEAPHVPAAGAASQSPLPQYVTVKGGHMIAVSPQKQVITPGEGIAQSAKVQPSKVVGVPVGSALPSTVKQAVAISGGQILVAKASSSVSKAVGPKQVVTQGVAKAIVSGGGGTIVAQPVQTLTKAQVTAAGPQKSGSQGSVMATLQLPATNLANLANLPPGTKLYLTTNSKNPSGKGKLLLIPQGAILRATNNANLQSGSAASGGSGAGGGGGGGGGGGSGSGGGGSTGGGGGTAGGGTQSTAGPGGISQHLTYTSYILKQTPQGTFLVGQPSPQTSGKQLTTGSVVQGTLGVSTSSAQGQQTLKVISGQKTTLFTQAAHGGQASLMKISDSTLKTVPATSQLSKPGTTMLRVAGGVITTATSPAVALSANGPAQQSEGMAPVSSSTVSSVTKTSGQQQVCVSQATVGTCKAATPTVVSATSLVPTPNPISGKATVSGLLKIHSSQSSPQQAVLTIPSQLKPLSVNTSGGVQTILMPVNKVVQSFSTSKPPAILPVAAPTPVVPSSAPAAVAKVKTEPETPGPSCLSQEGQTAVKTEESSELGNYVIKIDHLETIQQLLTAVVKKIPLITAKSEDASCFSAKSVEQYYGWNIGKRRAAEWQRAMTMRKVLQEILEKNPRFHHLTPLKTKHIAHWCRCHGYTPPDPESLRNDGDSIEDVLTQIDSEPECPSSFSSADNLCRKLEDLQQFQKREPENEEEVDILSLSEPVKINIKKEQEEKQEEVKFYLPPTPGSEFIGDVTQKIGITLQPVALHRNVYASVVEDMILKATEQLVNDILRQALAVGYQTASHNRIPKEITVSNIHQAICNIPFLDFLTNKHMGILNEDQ

B1: HA-OGT (enzyme, UniProt O15294 1-1046)
chain: MASSVGNVADSTEPTKRMLSFQGLAELAHREYQAGDFEAAERHCMQLWRQEPDNTGVLLLLSSIHFQCRRLDRSAHFSTLAIKQNPLLAEAYSNLGNVYKERGQLQEAIEHYRHALRLKPDFIDGYINLAAALVAAGDMEGAVQAYVSALQYNPDLYCVRSDLGNLLKALGRLEEAKACYLKAIETQPNFAVAWSNLGCVFNAQGEIWLAIHHFEKAVTLDPNFLDAYINLGNVLKEARIFDRAVAAYLRALSLSPNHAVVHGNLACVYYEQGLIDLAIDTYRRAIELQPHFPDAYCNLANALKEKGSVAEAEDCYNTALRLCPTHADSLNNLANIKREQGNIEEAVRLYRKALEVFPEFAAAHSNLASVLQQQGKLQEALMHYKEAIRISPTFADAYSNMGNTLKEMQDVQGALQCYTRAIQINPAFADAHSNLASIHKDSGNIPEAIASYRTALKLKPDFPDAYCNLAHCLQIVCDWTDYDERMKKLVSIVADQLEKNRLPSVHPHHSMLYPLSHGFRKAIAERHGNLCLDKINVLHKPPYEHPKDLKLSDGRLRVGYVSSDFGNHPTSHLMQSIPGMHNPDKFEVFCYALSPDDGTNFRVKVMAEANHFIDLSQIPCNGKAADRIHQDGIHILVNMNGYTKGARNELFALRPAPIQAMWLGYPGTSGALFMDYIITDQETSPAEVAEQYSEKLAYMPHTFFIGDHANMFPHLKKKAVIDFKSNGHIYDNRIVLNGIDLKAFLDSLPDVKIVKMKCPDGGDNADSSNTALNMPVIPMNTIAEAVIEMINRGQIQITINGFSISNGLATTQINNKAATGEEVPRTIIVTTRSQYGLPEDAIVYCNFNQLYKIDPSTLQMWANILKRVPNSVLWLLRFPAVGEPNIQQYAQNMGLPQNRIIFSPVAPKEEHVRRGQLADVCLDTPLCNGHTTGMDVLWAGTPMVTMPGETLASRVAASQLTCLGCLELIAKNRQEYEDIAVKLGTDLEYLKKVRGKVWKQRISSPLFNTKQYTMELERLYLQMWEHYAAGNKPDHMIKPVEVTESA
For B1, the binding (FLAG-YEATS2 [1]) was “binds”.

B2: HA-ZZZ3 (protein, UniProt Q8IYH5 1-903)
chain: MAASRSTRVTRSTVGLNGLDESFCGRTLRNRSIAHPEEISSNSQVRSRSPKKRPEPVPIQKGNNNGRTTDLKQQSTRESWVSPRKRGLSSSEKDNIERQAIENCERRQTEPVSPVLKRIKRCLRSEAPNSSEEDSPIKSDKESVEQRSTVVDNDADFQGTKRACRCLILDDCEKREIKKVNVSEEGPLNSAVVEEITGYLAVNGVDDSDSAVINCDDCQPDGNTKQNSIGSYVLQEKSVAENGDTDTQTSMFLDSRKEDSYIDHKVPCTDSQVQVKLEDHKIVTACLPVEHVNQLTTEPATGPFSETQSSLRDSEEEVDVVGDSSASKEQCKENTNNELDTSLESMPASGEPEPSPVLDCVSAQMMSLSEPQEHRYTLRTSPRRAAPTRGSPTKNSSPYRENGQFEENNLSPNETNATVSDNVSQSPTNPGEISQNEKGICCDSQNNGSEGVSKPPSEARLNIGHLPSAKESASQHITEEEDDDPDVYYFESDHVALKHNKDYQRLLQTIAVLEAQRSQAVQDLESLGRHQREALKNPIGFVEKLQKKADIGLPYPQRVVQLPEIVWDQYTHSLGNFEREFKNRKRHTRRVKLVFDKVGLPARPKSPLDPKKDGESLSYSMLPLSDGPEGSSSRPQMIRGRLCDDTKPETFNQLWTVEEQKKLEQLLIKYPPEEVESRRWQKIADELGNRTAKQVASRVQKYFIKLTKAGIPVPGRTPNLYIYSKKSSTSRRQHPLNKHLFKPSTFMTSHEPPVYMDEDDDRSCFHSHMNTAVEDASDDESIPIMYRNLPEYKELLQFKKLKKQKLQQMQAESGFVQHVGFKCDNCGIEPIQGVRWHCQDCPPEMSLDFCDSCSDCLHETDIHKEDHQLEPIYRSETFLDRDYCVSQGTSYNYLDPNYFPANR
B2 was tested, and the binding (FLAG-YEATS2 [2]) was “binds” and the binding (FLAG-YEATS2-T604A) was “binds”.
